This experiment deals with FLAG-ApoER2(R774L) (mouse) (UniProt Q924X6). In words: co-IP; FLAG-tagged ApoER2 co-expressed in COS7 cells with GFP-tagged Pafah1b α subunits; immunoprecipitated with FLAG antibodies, blotted with GFP antibodies.

Amino acid sequences for entries named in this document (tags omitted). A change or cut given only in a name is not applied to a line headed by its entry.
UniProt Q924X6: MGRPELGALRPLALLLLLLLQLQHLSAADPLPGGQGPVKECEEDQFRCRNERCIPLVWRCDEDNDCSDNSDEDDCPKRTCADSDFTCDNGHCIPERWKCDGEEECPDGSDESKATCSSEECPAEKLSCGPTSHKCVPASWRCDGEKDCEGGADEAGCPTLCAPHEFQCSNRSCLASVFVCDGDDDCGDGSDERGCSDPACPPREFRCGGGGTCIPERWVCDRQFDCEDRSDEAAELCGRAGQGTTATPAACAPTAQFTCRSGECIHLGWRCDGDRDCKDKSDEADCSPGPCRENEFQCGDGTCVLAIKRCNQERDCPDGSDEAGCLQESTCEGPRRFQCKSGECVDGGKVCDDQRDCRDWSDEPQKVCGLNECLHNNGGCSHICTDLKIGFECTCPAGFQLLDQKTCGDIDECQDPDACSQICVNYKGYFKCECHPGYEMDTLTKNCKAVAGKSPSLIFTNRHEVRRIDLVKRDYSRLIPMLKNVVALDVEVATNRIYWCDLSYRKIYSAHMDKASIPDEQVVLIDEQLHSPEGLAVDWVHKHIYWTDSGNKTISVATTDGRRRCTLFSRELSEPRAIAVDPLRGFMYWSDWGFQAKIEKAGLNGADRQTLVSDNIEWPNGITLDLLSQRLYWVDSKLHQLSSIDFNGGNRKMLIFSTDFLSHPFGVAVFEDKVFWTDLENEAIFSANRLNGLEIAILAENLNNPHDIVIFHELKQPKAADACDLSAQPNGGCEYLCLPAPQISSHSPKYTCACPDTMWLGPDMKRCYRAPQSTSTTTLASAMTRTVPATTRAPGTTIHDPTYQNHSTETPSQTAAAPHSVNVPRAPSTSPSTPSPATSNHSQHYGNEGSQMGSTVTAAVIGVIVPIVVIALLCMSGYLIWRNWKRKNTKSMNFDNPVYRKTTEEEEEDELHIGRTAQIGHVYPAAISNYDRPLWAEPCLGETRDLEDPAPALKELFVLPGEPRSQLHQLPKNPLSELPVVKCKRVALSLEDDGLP

No constants are given. Whether binding was seen depends on the method and setting. In cells and extracts the contact can be indirect. A result given as binding can be weak or reduced; the word gives no strength. Where a sequence is shown, tags or fusion partners need not be part of it.

B1: GFP-tagged Pafah1b2 (protein, UniProt Q61206 1-229)
chain: MSQGDSNPAAIPHAAEDIQGDDRWMSQHNRFVLDCKDKEPDVLFVGDSMVQLMQQYEIWRELFSPLHALNFGIGGDTTRHVLWRLKNGELENIKPKVIVVWVGTNNHENTAEEVAGGIEAIVQLINTRQPQAKIIVLGLLPRGEKPNPLRQKNAKVNQLLKVSLPKLANVQLLDIDGGFVHSDGAISCHDMFDFLHLTGGGYAKICKPLHELIMQLLEETPEEKQTTIA
Regarding B1, the binding entry is “binds”.

B2: GFP-tagged Pafah1b3 (protein, UniProt Q61205 1-232)
chain: MSGEGENPASKPTPVQDVQGDGRWMSLHHRFVADSKDKEPEVVFIGDSLVQLMHQCEIWRELFSPLHALNFGIGGDSTQHVLWRLENGELEHIRPKIVVVWVGTNNHSHTAEQVTGGIKAIVQLVNKLQPQARVVVLGLLPRGQHPNPLREKNRQVNELVRAALAGYPRAHFLDADPGFVHSDGTISHHDMYDYLHLSRLGYTPVCRALHSLLLRLLAQDQGQGIPLPETAS
As for B2, the binding result is on record as “binds”.

The values above are taken from paper PMC1800349.
